Measured values: article doi:10.1101/2022.05.12.491601
No constants are given. Whether binding was seen depends on the method and setting. Binding seen in cells or lysates may run through a third protein. Some binding calls cover weakened binding; strength is not graded here.

T1: P2X4 receptor (mouse (endogenous in BMDM)) (UniProt Q9JJX6)
T1 sequence: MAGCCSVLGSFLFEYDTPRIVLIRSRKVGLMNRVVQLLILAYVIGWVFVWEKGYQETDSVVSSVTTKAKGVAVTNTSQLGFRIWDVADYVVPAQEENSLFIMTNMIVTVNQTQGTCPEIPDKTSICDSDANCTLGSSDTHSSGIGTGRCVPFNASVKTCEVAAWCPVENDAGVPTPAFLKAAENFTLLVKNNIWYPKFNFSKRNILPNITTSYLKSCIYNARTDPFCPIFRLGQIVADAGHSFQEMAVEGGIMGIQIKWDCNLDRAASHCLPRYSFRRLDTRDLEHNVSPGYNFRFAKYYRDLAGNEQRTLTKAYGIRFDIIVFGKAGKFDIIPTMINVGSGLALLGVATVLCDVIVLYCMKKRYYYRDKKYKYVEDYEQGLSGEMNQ

T2: ApoE (mouse (endogenous in BMDM)) (UniProt P08226)
T2 sequence: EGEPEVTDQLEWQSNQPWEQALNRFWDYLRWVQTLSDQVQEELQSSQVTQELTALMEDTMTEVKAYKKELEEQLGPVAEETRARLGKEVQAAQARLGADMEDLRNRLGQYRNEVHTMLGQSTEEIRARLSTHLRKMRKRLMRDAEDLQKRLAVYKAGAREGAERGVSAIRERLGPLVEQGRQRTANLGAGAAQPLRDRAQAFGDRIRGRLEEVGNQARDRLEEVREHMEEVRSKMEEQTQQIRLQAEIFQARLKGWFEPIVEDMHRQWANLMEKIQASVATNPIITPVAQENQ


Legend:
[1] = biological target: T1, P2X4 receptor (mouse (endogenous in BMDM)); test: co-IP
[2] = biological target: T2, ApoE (mouse (endogenous in BMDM)); test: co-IP

Row | binding [1] | binding [2] | Binder
1 | binds | – | ApoE (protein, UniProt P08226 19-311) EGEPEVTDQLEWQSNQPWEQALNRFWDYLRWVQTLSDQVQEELQSSQVTQELTALMEDTMTEVKAYKKELEEQLGPVAEETRARLGKEVQAAQARLGADMEDLRNRLGQYRNEVHTMLGQSTEEIRARLSTHLRKMRKRLMRDAEDLQKRLAVYKAGAREGAERGVSAIRERLGPLVEQGRQRTANLGAGAAQPLRDRAQAFGDRIRGRLEEVGNQARDRLEEVREHMEEVRSKMEEQTQQIRLQAEIFQARLKGWFEPIVEDMHRQWANLMEKIQASVATNPIITPVAQENQ
2 | – | binds | P2X4 receptor (receptor, UniProt Q9JJX6 1-388) MAGCCSVLGSFLFEYDTPRIVLIRSRKVGLMNRVVQLLILAYVIGWVFVWEKGYQETDSVVSSVTTKAKGVAVTNTSQLGFRIWDVADYVVPAQEENSLFIMTNMIVTVNQTQGTCPEIPDKTSICDSDANCTLGSSDTHSSGIGTGRCVPFNASVKTCEVAAWCPVENDAGVPTPAFLKAAENFTLLVKNNIWYPKFNFSKRNILPNITTSYLKSCIYNARTDPFCPIFRLGQIVADAGHSFQEMAVEGGIMGIQIKWDCNLDRAASHCLPRYSFRRLDTRDLEHNVSPGYNFRFAKYYRDLAGNEQRTLTKAYGIRFDIIVFGKAGKFDIIPTMINVGSGLALLGVATVLCDVIVLYCMKKRYYYRDKKYKYVEDYEQGLSGEMNQ
